# About 5,400 (1.8%) of roughly 300,000 compounds were called active. The shares of active, inactive and inconclusive entries below differ from those in the screen. Calls come from the whole dose curve; tested in HEK293 cells. Potencies of inconclusive entries are doubtful fits and often do not repeat.
# Test: qHTS for inhibitors of binding or entry into cells for Marburg Virus
# Details: Marburg virus pseudotyped entry inhibition, cell reporter; activity change, negative = inhibition: at 37.8 µM (top of the series) unless noted
# % is set by controls: 0 for no effect and ±100 for the full control effect; potency is the fitted concentration of half-maximal effect.
Compound,Potency,"activity change, negative = inhibition"
COc1cc(C=O)ccc1OCCCOc1ccccc1C(=O)O,"inconclusive: 7.94 µM [inhibitor, partial curve, poor fit]",–
O=C(C1CCC(CNc2nc(=S)[nH]c3ccccc23)CC1)N1CCN(c2ccc(F)cc2)CC1 (configuration not stated),"inconclusive: 31.6 µM [inhibitor, single point]",–
CC1CCN(CCCCOc2ccc(C(=O)c3ccccc3)cc2)CC1,"inconclusive: 28.2 µM [inhibitor, single point]",–
O=S1(=O)CC(N2CC=CC2)CN1C1CCCCC1 (configuration not stated),"inconclusive: 2.81 µM [activator, full curve, poor fit]",–
COc1ccc(CNC(=O)c2cccc(S(=O)(=O)N3CCN(c4ccc(F)cc4)CC3)c2)cc1,"inconclusive: 12.6 µM [inhibitor, single point]",–
COc1ccc(Cl)cc1C(=O)Nc1ccc(CN2CCCCC2)cc1,"inconclusive: 28.2 µM [inhibitor, single point]",–
CC(OC(=O)c1oc2ccccc2c1COc1ccccc1)C(N)=O (configuration not stated),"inconclusive: 8.91 µM [inhibitor, partial curve, poor fit]",–
O=C(Nc1ccc(N2CCOCC2)c(Cl)c1)c1ccc(Br)o1,–,inactive: -10.3%
CNc1ncnc(Sc2nc(N)nc3nc[nH]c23)c1[N+](=O)[O-],"inconclusive: 3.16 µM [inhibitor, full curve, poor fit]",–
C/C(CCN1CCCc2nc(C)c(C)cc21)=N\O[C@H](C)c1cn([C@@H]2COC[C@H]2O)nn1,–,inactive: 7.31% [at 14.2 µM]
COc1ccc(N2CC(C(=O)N3CCN(c4ccccc4)CC3)CC2=O)cc1 (configuration not stated),"inconclusive: 35.5 µM [activator, partial curve, poor fit]",–
CC(C)CSc1ccccc1NC(=O)c1sc2nc(-c3ccncc3)ccc2c1N,–,inactive: 0.0384% [at 46.1 µM]
Cc1cc(C)cc(N(CC(=O)NCc2ccc(F)cc2)C(=O)c2snc(C(N)=O)c2N)c1,"inconclusive: 4.47 µM [inhibitor, partial curve, poor fit]",–
CCOC(=O)c1c(-c2ccccc2Cl)csc1NC(=O)c1cc(S(=O)(=O)N2CCOCC2)ccc1C,"inconclusive: 12.6 µM [inhibitor, partial curve, poor fit]",–
Cc1ccc(-n2c(C)cc(/C=C3/C(=N)N4C(c5ccccc5)=CSC4=NC3=O)c2C)cc1,"inconclusive: 2.82 µM [activator, full curve, poor fit]",–
CCOc1cc(C(=O)NC(=S)Nc2cccnc2)cc(OCC)c1OCC,"inconclusive: 6.31 µM [inhibitor, single point]",–
O=C(c1ccccc1)N1CCN(c2ccc(N3CCOCC3)nn2)CC1,–,inactive: -11%

# 3 entries already listed, ordered by SMILES length, low to high.
Compound,Potency,"activity change, negative = inhibition"
O=C(C1CCC(CNc2nc(=S)[nH]c3ccccc23)CC1)N1CCN(c2ccc(F)cc2)CC1 (configuration not stated),"inconclusive: 31.6 µM [inhibitor, single point]",–
CCOC(=O)c1c(-c2ccccc2Cl)csc1NC(=O)c1cc(S(=O)(=O)N2CCOCC2)ccc1C,"inconclusive: 12.6 µM [inhibitor, partial curve, poor fit]",–
C/C(CCN1CCCc2nc(C)c(C)cc21)=N\O[C@H](C)c1cn([C@@H]2COC[C@H]2O)nn1,–,inactive: 7.31% [at 14.2 µM]

# Reference: PubChem BioAssay AID540276 (National Center for Advancing Translational Sciences (NCATS), 2011)
